The values below come from patent US20250269047A1.

Protein sequences, listed by entry. Tags and fused reporters are not part of them. Lines headed by an entry give the natural chain unless they say otherwise; changes in a name come on top.
UniProt Q5ZPR3: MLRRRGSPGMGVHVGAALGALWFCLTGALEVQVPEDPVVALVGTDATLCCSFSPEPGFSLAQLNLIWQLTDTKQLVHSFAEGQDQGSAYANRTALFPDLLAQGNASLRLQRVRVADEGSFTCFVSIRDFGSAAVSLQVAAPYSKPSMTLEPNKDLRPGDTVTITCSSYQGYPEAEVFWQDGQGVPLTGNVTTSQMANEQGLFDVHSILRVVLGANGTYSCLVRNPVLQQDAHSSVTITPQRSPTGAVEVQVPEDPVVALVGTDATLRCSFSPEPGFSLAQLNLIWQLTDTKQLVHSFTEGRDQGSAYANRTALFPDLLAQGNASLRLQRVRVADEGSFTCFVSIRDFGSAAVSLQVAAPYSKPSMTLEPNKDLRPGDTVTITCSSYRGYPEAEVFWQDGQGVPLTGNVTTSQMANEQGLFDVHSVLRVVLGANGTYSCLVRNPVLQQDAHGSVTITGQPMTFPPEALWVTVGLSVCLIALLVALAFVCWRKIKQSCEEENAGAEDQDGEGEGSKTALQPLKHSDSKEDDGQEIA

No constants are given. Whether binding was seen depends on the method and setting. Binding can be weak; no strength is given.

Assay [1] addresses T1, recombinant human B7-H3-his extracellular domain protein (UniProtKB-Q5ZPR3, 1 aa-461 aa) (human) (UniProt Q5ZPR3). Description: ELISA, plate coated with recombinant human B7-H3-his ECD (20 ng/ml), hybridoma culture supernatant, HRP goat anti-mouse IgG (Fcγ).
Assay [2] concerns the target T1, recombinant human B7-H3-his extracellular domain protein. Description: BLI (Octet QKe), antibody on AHC biosensor.
For assay [3] the target is unchanged. Description: ELISA, coated antigen 0.2 µg/ml, one antibody concentration.
For assay [4], the target named is recombinant monkey B7-H3-his extracellular domain protein (XP-005560056.1, 1 aa-465 aa) (monkey). Described as above.

B1: 485 (antibody, V domains shown)
VH: EVQLQQSGPELVKPGASVKISCKTSGYTFTEYIMHWVKQSHGKSLEWIGGINPNNGGTTYNQKFKGKATLTVDKSSSTAYMELRSLTSEDSAVYYCARKGKDYFDWYFDVWGAGTTVTVSS
VL: QIVLTQSPTIMSASPGEKVTMTCSASSSVSYMHWYQQKSGTSPKRWIYDTSKLASGVPARFSGSGSGTSYSLTISSMEAEDAATYYCQQWSSNPLTFGAGTKLELK
Consider B1, for which the binding entry in assay [1] is given as “binds”.

B2: ch10B4 (antibody, human IgG1, V domains shown)
VH: EVQLQQSGPELVKPGASVKISCKTSGYTFTEYIMHWVKQSHGKSLEWIGGINPNNGGTTYNQKFKGKATLTVDKSSSTAYMELRSLTSEDSAVYYCARKGKDYFDWYFDVWGAGTTVTVSS
VL: QIVLTQSPTIMSASPGEKVTMTCSASSSVSYMHWYQQKSGTSPKRWIYDTSKLASGVPARFSGSGSGTSYSLTISSMEAEDAATYYCQQWSSNPLTFGAGTKLELK
Regarding B2, the binding result in assay [2] and in assay [3] was “binds” each time.

B3: 445 (antibody, V domains shown)
VH: EVQLQQSGPELVRPGVSVKISCKGSGYSFTDYAIHWVKQSHAMSLEWIGIINTYYGNTNYNQKFKGKATMTVDKSSSTAYMELARLTSADSAIYYCARSTTTATFYWYFDVWGAGTTVSVSS
VL: DIVLTQSPVTLSVTPGDSVSLSCRASQSINNNLHWYQQKPHESPRLLIKYASQSISGIPSRFSGSGSGTDFTLSFNSVETEDFGMYFCQQSHSWPYTFGGGTKLEIK
Turning to B3, the binding result in assay [1] was “binds”.

B4: ch9B11 (antibody, human IgG1, V domains shown)
VH: EVQLQQSGPELVRPGVSVKISCKGSGYSFTDYAIHWVKQSHAMSLEWIGIINTYYGNTNYNQKFKGKATMTVDKSSSTAYMELARLTSADSAIYYCARSTTTATFYWYFDVWGAGTTVSVSS
VL: DIVLTQSPVTLSVTPGDSVSLSCRASQSINNNLHWYQQKPHESPRLLIKYASQSISGIPSRFSGSGSGTDFTLSFNSVETEDFGMYFCQQSHSWPYTFGGGTKLEIK
Regarding B4, the binding entry in assay [2], in assay [4] and in assay [3] was “binds” each time.
